Assay [1] deals with recombinant human EGFR/ErbB1 Fc chimera protein (R&D systems, 344-ER) (human) (UniProt P00533). As to the kind of experiment: condition: 256 nM (same manner as for EGFRvIII; not printed on the sheet); SPR (Biacore T200), B4A3 captured as ligand, rhEGFR-Fc as sample, 25 C. A general note: SPR reads the build-up and loss of mass on a sensor chip optically.
For assay [2] the target is unchanged. The experiment in a line: SPR (Biacore T200), antibody captured with human Fab capture kit, antigen as analyte.

Results are given in words; binding and its absence hold for the method and conditions named.

B1: B4A3 antibody (human IgG1) (antibody, V domains shown)
VH: EVQLLESGGGLVQPGGSLRLSCAASGFTFSNYYMSWVRQAPGKGLEWVSGTSPNGGSKYYADSVKGRFTISRDNSKNTLYLQMNSLRAEDTAVYYCAKGRRKLRATRFDYWGQGTLVTVSS
VL: QSVLTQPPSASGTPGQRVTISCTGSSSNIGNNYVSWYQQHPGTAPKLLIYSDSNRPSGVPDRFSGSKSGTSASLAISGLRSEDEADYYCATWDASLSAYVFGGGTKLTVL
B1: the binding entry in assay [1] and in assay [2] was “no binding” throughout.
